Results are given in words; binding and its absence hold for the method and conditions named. Binding seen in cells or lysates may run through a third protein. Some results given as binding are weak or reduced against the parent protein; the word gives no strength.
Molecular target: T1, ASCL1 (human (endogenous in patient-derived GBM xenograft)) (UniProt P50553)
T1 sequence: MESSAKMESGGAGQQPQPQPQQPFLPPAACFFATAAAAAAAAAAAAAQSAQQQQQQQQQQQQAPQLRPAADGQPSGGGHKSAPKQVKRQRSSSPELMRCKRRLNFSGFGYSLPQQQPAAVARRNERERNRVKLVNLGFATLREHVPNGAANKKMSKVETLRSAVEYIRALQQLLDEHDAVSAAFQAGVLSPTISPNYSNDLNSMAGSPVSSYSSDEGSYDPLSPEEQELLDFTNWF
Assay: co-IP; PDOX-GBM tumor, nuclear extracts in RIPA buffer, pre-cleared with Dynabeads Protein G; IP with guinea pig anti-ASCL1 for 2 h, Dynabeads Protein G at 4 °C overnight; blot with guinea pig anti-ASCL1 and rabbit anti-OLIG2

B1: OLIG2 (protein, UniProt Q13516 1-323)
chain: MDSDASLVSSRPSSPEPDDLFLPARSKGSSGSAFTGGTVSSSTPSDCPPELSAELRGAMGSAGAHPGDKLGGSGFKSSSSSTSSSTSSAAASSTKKDKKQMTEPELQQLRLKINSRERKRMHDLNIAMDGLREVMPYAHGPSVRKLSKIATLLLARNYILMLTNSLEEMKRLVSEIYGGHHAGFHPSACGGLAHSAPLPAATAHPAAAAHAAHHPAVHHPILPPAAAAAAAAAAAAAVSSASLPGSGLPSVGSIRPPHGLLKSPSAAAAAPLGGGGGGSGASGGFQHWGGMPCPCSMCQVPPPHHHVSAMGAGSLPRLTSDAK
Q: How did the binding turn out when B1 was run?
A: Its binding is “binds”.

Source: article PMC11605073
